Where two headings read alike, the source gives them in different places. Structures were worked out from names or drawings and are uncertain.
Columns and labels:
DEL cells = assay: CellTiter-Glo cell viability, DEL; settings: for CTG (% Max inh), Day 4: ALCL (ALK+)
SU-DHL-1 cells = assay: CellTiter-Glo cell viability, SU-DHL-1; settings: for cell proliferation: SU-DHL-1, FIG. 5B, FIG. 16
Description: (§1) Compound-mediated viability effect on MOLM-16 and SU-HDL-1 cells was quantitatively determined using the CellTiter-Glo® Luminescent Cell Viability Assay kit from Promega (Catalog number G7572) following manufacturer's recommended procedures.
(§2) Day 0: 60 nL of compounds/DMSO were stamped to the cell plate as on the recommended platemap. Compound precipitation was observed. Cells were centrifuged at 800 rpm for 5 min, suspended with culture medium, and counted with Countess (Invitrogen). The cell density was adjusted to the recommend concentration. 30 μL of cell solution (2000 cells/well) was added to the assay plate according to the platemap. 30 μL of media was added to column 2 and column 23 as on the platemap. The final concentration of the compounds except for the reference compound Paclitaxel was from 10 μM, 3-fold dilution and 11 dose (Paclitaxel started at 500 nM). The final DMSO concentration was 0.2%. The assay plate was incubated at 37° C., 5% CO2 for 4 days.
(§3) Day 4: The assay plate was equilibrated to RT for ˜10 minutes. Compound precipitation was observed (96h). To determine cell viability, 30 μL of CellTiter Glo reagent was added to each well and the assay plate was centrifuged at 1000 rpm for 30 second, incubated at room temperature for 10 min, and analyzed by detecting the luminescence using a multimode plate reader (EnVision 2105, PerkinElmer). The data was then analyzed by software Prism 7.0 from GraphPad and the dose response curves were fit using a three-parameter logistic equation to calculate EC50.

SU-DHL-1 tumor cells = assay: Xenograph tumor study, SU-DHL-1; settings: SUDHL-1 xenograph, 2.5-30 mg/kg, 2 days on/5 days off
Description: Animals: 50 6-8 week old female NOD SCID mice weighing 18 to 20 grams. 25 mice were used in each study.
Method for Tumor Inoculation: Each mouse was inoculated subcutaneously with SU-DHL-1 tumor cells (1×107+Matrigel) or SUP-M2 tumor cells (5×106+Matrigel) in 0.1 ml of RPMI1640 medium supplemented with 10% FBS, 100 U/ml penicillin and […] streptomycin for tumor development. Mice were then assigned to groups such that the mean tumor volume was the same for each treatment group and time point. […] Vehicle was 25% HP-β-CD in water adjusted to pH 7.4.
Measurement Parameters: Study animals were monitored not only for tumor growth but also behavior such as mobility, food and water consumption (by cage side checking only), body weight (BW), eye/hair matting and any other abnormal effect. Any mortality and/or abnormal clinical signs was recorded. Sponsor was notified immediately if abnormal clinical signs, or if tolerability issues were observed. Body weights of all animals were measured and recorded twice per week. The measurement of tumor size was conducted twice weekly with a caliper and recorded. The tumor volume (mm3) was estimated using the formula: TV=a×b2/2, where “a” and “b” are long and short diameters of a tumor, respectively.

SR-786 cells = assay: CellTiter-Glo cell viability, SR-786; settings: for CTG (% Max inh), Day 4: SR-786, ALCL (ALK+)
Description: as §1, §2, §3

Cn1c(=O)n(C2CCC(=O)NC2=O)c2ccc(CCCCCCC(=O)N3CC[C@H]4CC[C@@H](C(=O)N[C@@H](CCC(N)=O)C(=O)NC(c5ccccc5)c5ccccc5)N4C(=O)[C@@H](NC(=O)c4cc5cc(C(=O)P(=O)(O)O)ccc5[nH]4)C3)cc21 (stereo partly shown)
CTG (% Max inh), Day 4 (DEL cells; Day 4): (>95) % | IC50 (DEL cells; read-out: CTG, IC50 μM, Day 4, ALCL (ALK+), Day 4): 0.11 µM | cell proliferation (SU-DHL-1 cells): inhibits | IC50 (SU-DHL-1 cells; read-out: Growth inhibition, CTG IC50 (μM) at 96 hr, SU-DHL-1, 96 hr): 0.167 µM | tumor volume, 5 days (SU-DHL-1 tumor cells; IP): A (A<500 mm^3) | tumor volume, 10 days (SU-DHL-1 tumor cells; IP): A (A<500 mm^3) | tumor volume, 15 days (SU-DHL-1 tumor cells; IP): A (A<500 mm^3) | tumor volume, 20 days (SU-DHL-1 tumor cells; IP): A (A<500 mm^3) | CTG (% Max inh), Day 4 (SR-786 cells): (75) % | IC50 (SR-786 cells; read-out: CTG, IC50 μM, Day 4, SR-786, ALCL (ALK+)): 3.8 µM

Cc1ncsc1-c1ccc([C@H](C)NC(=O)[C@@H]2C[C@@H](O)CN2C(=O)[C@@H](NC(=O)CCCCc2ccc(CO[C@H](C)[C@H](CCC(N)=O)NC(=O)[C@@H]3Cc4cccc5c4N3C(=O)[C@@H](NC(=O)c3cc4cc(C(=O)P(=O)(O)O)ccc4[nH]3)CC5)cc2)C(C)(C)C)cc1 [Compound I-227]
CTG (% Max inh), Day 4 (DEL cells; Day 4, tested form: diammonium): (>95) % | cell proliferation (DEL cells; FIG. 16, tested form: diammonium): inhibit | IC50 (DEL cells; read-out: CTG, IC50 μM, Day 4, ALCL (ALK+), Day 4, tested form: diammonium): 0.038 µM | CTG (% Max inh), Day 4 (SU-DHL-1 cells; SU-DHL-1, ALCL (ALK+), Day 4, tested form: diammonium): (89) % | cell proliferation (SU-DHL-1 cells; tested form: diammonium): inhibit | IC50 (SU-DHL-1 cells; read-out: CTG, IC50 μM, Day 4, SU-DHL-1, ALCL (ALK+), Day 4, tested form: diammonium): 0.321 µM | tumor volume, 5 days (SU-DHL-1 tumor cells; IV, tested form: diammonium): A (A<500 mm^3) | tumor volume, 10 days (SU-DHL-1 tumor cells; IV, tested form: diammonium): B (B=500-1000 mm^3) | tumor volume, 15 days (SU-DHL-1 tumor cells; IV, tested form: diammonium): C (C=>1000 mm^3) | tumor volume, 20 days (SU-DHL-1 tumor cells; IV, tested form: diammonium): C (C=>1000 mm^3) | CTG (% Max inh), Day 4 (SR-786 cells; tested form: diammonium): (85) % | IC50 (SR-786 cells; read-out: CTG, IC50 μM, Day 4, SR-786, ALCL (ALK+), tested form: diammonium): 0.25 µM
